# Assay results reported in the supplement of paper PMC6143611.
# ± gives the uncertainty stated by the source. The list shows a part of the results. Plates or batches differ in their baseline, so values are only roughly comparable.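 Larvae carried a heat-shock-induced fluorescent stripe in rod outer segments, set at 6 dpf; the shedding distance runs from this stripe to the outer segment tip, measured in confocal stacks, about three fish per compound. The controls got 0.2% DMSO vehicle, and the paper flagged compounds with at least a 20% change against the same-week control and p < 0.001 (Dunnett test on mixed-effects models).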
# How the values were obtained:
# [1] = tested on: Danio rerio larva rod photoreceptor outer segment; experiment: rod outer segment growth distance Dg, difference from same-week DMSO control mean; higher = more outer segment growth; details: 20 µM; treatment time: 4 days (6-10 dpf)
# [2] = tested on: Danio rerio larva rod photoreceptor outer segment; experiment: rod outer segment shedding distance Ds, difference from same-week DMSO control mean; higher = less outer segment shedding; details: 20 µM; treatment time: 4 days (6-10 dpf)
SMILES,rod outer segment growth distance Dg [1],rod outer segment shedding distance Ds [2]
CC(C)N(CCCNC(=O)Nc1ccc(C(C)(C)C)cc1)C[C@H]1O[C@@H](n2ccc3c(N)ncnc32)[C@H](O)[C@@H]1O,-0.9 ± 0.18 um,0 ± 0.13 um
Fc1cc(-c2cccc3ncc(-c4cnn(C5CCNCC5)c4)nc23)cc(F)c1CN1CCOCC1,-1.16 ± 0.15 um,0.22 ± 0.13 um
CO[C@H]1/C=C/O[C@@]2(C)Oc3c(C)c(O)c4c(O)c(c5c(nc6cc(C)ccn65)c4c3C2=O)NC(=O)/C(C)=C\C=C\[C@H](C)[C@H](O)[C@@H](C)[C@@H](O)[C@@H](C)[C@H](OC(C)=O)[C@@H]1C [Rifaximin],-0.24 ± 0.23 um,-0.03 ± 0.13 um
Nc1nc(N)c2nc(-c3cccc(O)c3)cnc2n1,-0.17 ± 0.19 um,-0.73 ± 0.11 um
C[C@H]1C[C@@H]2[C@H]([C@@H](O)C[C@@]3(C)[C@H]2CC[C@]3(O)C(=O)CO)[C@@]2(C)C=CC(=O)C=C12 [Methylprednisolone],-0.58 ± 0.22 um,-0.15 ± 0.18 um
CC[C@H]1OC(=O)[C@H](C)[C@@H](O[C@H]2C[C@@](C)(OC)[C@@H](O)[C@H](C)O2)[C@H](C)[C@@H](O[C@@H]2O[C@H](C)C[C@H](N(C)C)[C@H]2O)[C@](C)(O)C[C@@H](C)CN(C)[C@H](C)[C@@H](O)[C@]1(C)O [Azithromycin],-1.02 ± 0.19 um,-0.77 ± 0.3 um
CC(C)[C@H]1C(=O)N[C@@H](CCCNC(=N)N)C(=O)NCC(=O)N[C@@H](CC(=O)O)C(=O)N[C@H](Cc2ccccc2)C(=O)N1C [Cilengitide],-0.81 ± 0.15 um,-0.18 ± 0.12 um
Cc1coc2c1C(=O)C(=O)c1c-2ccc2c(C)cccc12 [Tanshinone I],-0.59 ± 0.21 um,-0.03 ± 0.28 um
O=c1c(O)c(-c2ccc(O)cc2O)oc2cc(O)cc(O)c12 [Morin Hydrate],-0.56 ± 0.32 um,0.82 ± 0.28 um
Oc1cc(O)cc(/C=C/c2ccc(O)c(O)c2)c1 [Piceatannol],-0.2 ± 0.17 um,0.02 ± 0.17 um
CCN(C(=O)c1c(O)c2c(Cl)cccc2n(C)c1=O)c1ccccc1 [Laquinimod],-0.16 ± 0.13 um,0.33 ± 0.12 um
C[C@@H]1C/C=C/C=C/C=C/C=C/[C@H](O[C@@H]2O[C@H](C)[C@@H](O)[C@H](N)[C@@H]2O)C[C@@H]2O[C@](O)(C[C@@H](O)C[C@H]3O[C@@H]3/C=C/C(=O)O1)C[C@H](O)[C@H]2C(=O)O [Natamycin],-0.4 ± 0.22 um,0.05 ± 0.21 um
CCN1CCN(c2cc3c(cc2F)c(=O)c(C(=O)O)cn3C2CC2)CC1 [Enrofloxacin],1.38 ± 0.13 um,0.08 ± 0.12 um
CC1=C(C(=O)Nc2cc3cn[nH]c3cc2F)C(c2ccc(C(F)(F)F)cc2)CC(=O)N1 (stereo unspecified),-0.68 ± 0.16 um,0.1 ± 0.16 um
CCN1CCCC1CNC(=O)c1cc(S(=O)(=O)CC)c(N)cc1OC (stereo unspecified) [Amisulpride],-0.5 ± 0.14 um,-0.7 ± 0.18 um
O=C(Nc1cccc(Cl)c1)c1ccccn1,-0.95 ± 0.18 um,-0.49 ± 0.11 um
CC(C)(C)NS(=O)(=O)c1cncc(-c2cc(F)c3nc(N)nn3c2)c1,-0.94 ± 0.21 um,-0.28 ± 0.14 um
CCC[C@@H]1C[C@@H](C(=O)N[C@@H]([C@H]2O[C@H](SC)[C@H](O)[C@@H](O)[C@H]2O)[C@H](C)Cl)N(C)C1 [Clindamycin],0.88 ± 0.15 um,-0.35 ± 0.12 um
CCCC(=O)OCOC(=O)C1=C(C)NC(C)=C(C(=O)OC)C1c1cccc(Cl)c1Cl (stereo unspecified) [Clevidipine Butyrate],-0.14 ± 0.23 um,-0.02 ± 0.31 um
CCCc1cc(C(N)=S)ccn1 [Protionamide],1.7 ± 0.41 um,-1.68 ± 0.58 um
O=C(O)c1cccnc1 [Nicotinic Acid],-0.17 ± 0.23 um,-0.42 ± 0.17 um
O=c1cc(-c2ccc(O)cc2)oc2cc(O)cc(O)c12 [Apigenin],0.21 ± 0.24 um,0.78 ± 0.39 um
CCCS(=O)(=O)Nc1ccc(F)c(C(=O)c2c[nH]c3ncc(Cl)cc23)c1F,-0.25 ± 0.3 um,-0.05 ± 0.21 um
CN(CCOc1ccc(CC2SC(=O)NC2=O)cc1)c1ccccn1 (stereo unspecified) [Rosiglitazone],-1.78 ± 0.24 um,-0.75 ± 0.15 um
C[C@@H]1C[C@H]2[C@@H]3CCC4=CC(=O)C=C[C@]4(C)[C@@]3(Cl)[C@@H](O)C[C@]2(C)[C@@]1(OC(=O)c1ccco1)C(=O)CCl [Mometasone furoate],-0.48 ± 0.31 um,0.83 ± 0.25 um
CCN(CC)CCNC(=O)c1c(C)[nH]c(/C=C2\C(=O)Nc3ccc(F)cc32)c1C [Sunitinib Malate],-1.25 ± 0.19 um,-0.71 ± 0.29 um
CCC1(c2ccccc2)C(=O)NCNC1=O [Primidone],0.5 ± 0.3 um,1.06 ± 0.26 um
CC(C)CN(C[C@@H](O)[C@H](Cc1ccccc1)NC(=O)O[C@H]1CO[C@H]2OCC[C@H]21)S(=O)(=O)c1ccc(N)cc1 [Darunavir Ethanolate],0.16 ± 0.2 um,-0.34 ± 0.18 um

# Already shown: entries from further up.
SMILES,rod outer segment growth distance Dg [1],rod outer segment shedding distance Ds [2]
CC(C)(C)NS(=O)(=O)c1cncc(-c2cc(F)c3nc(N)nn3c2)c1,-0.94 ± 0.21 um,-0.28 ± 0.14 um
CCC[C@@H]1C[C@@H](C(=O)N[C@@H]([C@H]2O[C@H](SC)[C@H](O)[C@@H](O)[C@H]2O)[C@H](C)Cl)N(C)C1 [Clindamycin],0.88 ± 0.15 um,-0.35 ± 0.12 um
